LdMetRS: 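Methionyl-tRNA synthetase (putative), Leishmania donovani (UniProt E9BF75). Primary screen of methionyl-tRNA synthetase; the read-out is not stated. The test concentration is not given. The values are filed as inhibition. Of about 68,000 compounds tested this way, about 24 (0.035%) reached 50% or more in at least one test.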
Mtb heat-shock: 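Assay on Mycobacterium tuberculosis, filed only as a heat shock assay from Cornell; the read-out is not stated. The concentration is filed as 10 mM, unlikely as a test dose, so the dose is not known. Higher reads as stronger inhibition (inferred: compounds with an IC50 in retests scored well above the rest). Of about 69,000 compounds tested this way, about 930 (1.4%) reached 50% or more in at least one test.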

Protein sequences, listed by entry. Tags and fused reporters are not part of them.
UniProt E9BF75, entry or part of it: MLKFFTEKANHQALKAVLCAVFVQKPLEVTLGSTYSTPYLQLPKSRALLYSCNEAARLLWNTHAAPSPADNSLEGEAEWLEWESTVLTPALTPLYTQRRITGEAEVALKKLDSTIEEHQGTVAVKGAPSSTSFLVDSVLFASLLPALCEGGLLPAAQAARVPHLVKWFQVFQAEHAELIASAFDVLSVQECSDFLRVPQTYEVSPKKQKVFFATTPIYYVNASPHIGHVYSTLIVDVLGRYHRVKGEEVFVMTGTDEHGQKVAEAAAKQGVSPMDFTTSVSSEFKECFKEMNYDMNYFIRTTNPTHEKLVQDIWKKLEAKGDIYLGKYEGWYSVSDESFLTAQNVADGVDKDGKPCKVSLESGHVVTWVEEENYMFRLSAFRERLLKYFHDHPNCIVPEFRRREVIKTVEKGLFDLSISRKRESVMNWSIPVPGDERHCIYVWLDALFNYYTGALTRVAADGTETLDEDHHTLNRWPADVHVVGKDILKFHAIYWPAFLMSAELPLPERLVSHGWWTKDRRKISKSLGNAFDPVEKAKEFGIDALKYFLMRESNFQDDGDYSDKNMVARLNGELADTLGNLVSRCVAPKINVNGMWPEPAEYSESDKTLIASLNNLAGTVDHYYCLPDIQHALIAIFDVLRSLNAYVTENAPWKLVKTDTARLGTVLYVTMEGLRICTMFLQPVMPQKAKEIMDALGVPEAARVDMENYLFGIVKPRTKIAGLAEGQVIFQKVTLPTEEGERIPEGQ

All values are in %.
The controls that fix the scale are not given in the record; negative values are as filed.
This is an unselected part of the compounds tested.

* CNC(=O)C1(N2CCC[C@H]2C(=O)NC2CCCCC2)CCOCC1 : LdMetRS: 11.54%
* c1coc(CN2CCCn3c(nnc3Cn3cccc3)C2)c1 : LdMetRS: 1.639%
* CSc1ccccc1C(=O)N(C)C1CCCN(CCc2ccccc2)C1 (configuration not stated) : LdMetRS: 7.117%; Mtb heat-shock: -9.005%
* CC1CN(C)CCN1CC(=O)NCCOc1ccc2c(c1)OCO2 (configuration not stated) : LdMetRS: 3.492%; Mtb heat-shock: -0.4151%
* CCc1c(C)[nH]c(C(C)(C)N)nc1=O : LdMetRS: 17.29%
* O=C(CN1CCC(c2ccnn2CCO)CC1)NCC1CC1 : LdMetRS: 14.55%; Mtb heat-shock: 16.3%
* CCC(C)NC(=O)c1nnn(-c2cccc3c2CCN(C)C3)c1C (configuration not stated) : LdMetRS: 11.67%; Mtb heat-shock: -32.21%
* O=C(Cn1cccnc1=O)NC(Cc1ccsc1)c1nccs1 (configuration not stated) : LdMetRS: 7.91%; Mtb heat-shock: -18.08%
* CC(C)n1cnc(-c2nc(C(=O)NC3CC3)c3ccccn23)c1 : LdMetRS: 7.038%; Mtb heat-shock: 16.93%
* [H][C@@]12CCC(=O)N(CCC3=CCCCC3)[C@]1([H])CCN(C1CCOCC1)C2 : Mtb heat-shock: -17.46%
* Cc1cc2cccc(C(=O)N3CC[C@](C)(O)[C@H](C)C3)c2o1 : LdMetRS: 8.04%; Mtb heat-shock: -13.8%
* COc1ccc(-c2nc(CN3CCc4cncnc4C3)no2)cc1 : LdMetRS: 6.842%; Mtb heat-shock: 20.92%
* O=C(O)CCn1ccc2cc(Br)ccc21 : LdMetRS: -0.7752%; Mtb heat-shock: 2.193%
* CN(C)Cc1nnc(C2CCN(c3ncccc3Cl)CC2)n1C1CC1 : LdMetRS: 4.12%; Mtb heat-shock: -10.2%
* CSCc1noc(CN(C)C(C)c2nc(C)sc2C)n1 (configuration not stated) : LdMetRS: 5.344%; Mtb heat-shock: -23.12%
* Cc1ccc(C(=O)N(C)Cc2cscn2)c(=O)[nH]1 : LdMetRS: 14.08%; Mtb heat-shock: 11.64%
* CN(Cc1ccc(O)cc1)C(=O)NCc1nnc2n1CCCCC2 : LdMetRS: 10.56%; Mtb heat-shock: -22.07%
* CCS(=O)(=O)CCNC1CCN(c2nc3ccc(Cl)cc3s2)CC1 : LdMetRS: 10%; Mtb heat-shock: 13.77%
* C[C@@H]1C(=O)NC[C@H]2CN(CCc3ccccc3)C[C@H]21 : LdMetRS: 14.48%
* O=c1[nH][nH]cc1-c1ccnc(NCCN2CCCCC2)n1 : LdMetRS: 13.35%; Mtb heat-shock: -19.5%
* COCCOC(=O)N1CCn2nc(CN(C)Cc3nccs3)cc2C1 : LdMetRS: 6.005%; Mtb heat-shock: -19.34%
* c1ccc(Cn2cccn2)c(CN2CCC3(CCCNC3)C2)c1 (configuration not stated) : LdMetRS: 20.74%; Mtb heat-shock: 12.4%
* CN1CCN(C2CCN(CCOc3cccc(F)c3)CC2)C1=O : LdMetRS: 18.52%; Mtb heat-shock: 8.014%
* CC1CCN(C(CNC(=O)Cn2cccn2)c2cccs2)CC1 (configuration not stated) : LdMetRS: 13.49%; Mtb heat-shock: -15.9%
* CN1CCC(CNC(=O)CCSc2ccc3c(c2)OCCO3)C1 (configuration not stated) : LdMetRS: 24.38%; Mtb heat-shock: -5.959%
* Cc1nnc2n1CCN(C(=O)c1cc(C)n(-c3ccccc3)c1C)C2 : LdMetRS: 20%; Mtb heat-shock: 10.25%
* Cc1ncc(CC(=O)N2CCCC(COc3ccc(F)cc3)C2)c(=O)[nH]1 (configuration not stated) : LdMetRS: 6.164%; Mtb heat-shock: -18.56%
* CN1CCOC(CN(C(=O)Cc2ccccc2F)c2nccs2)C1 (configuration not stated) : LdMetRS: 4.762%; Mtb heat-shock: -11.42%
* CCC(CC)C(O)CNC(=O)Nc1cc(C)nn1C (configuration not stated) : LdMetRS: 7.042%; Mtb heat-shock: -6.915%
* CCCc1nc(C)cc(N2CCNC(C(=O)NC3CC3)C2)n1 (configuration not stated) : LdMetRS: 10.68%; Mtb heat-shock: -20.18%
* Cc1ccc(N2CCCc3sc(C(=O)NCCC#N)nc32)nn1.O=C(O)C(F)(F)F : Mtb heat-shock: -8.107%
* O=C(NCCCn1ccnc1)N1CCCC1c1ccncc1 (configuration not stated) : LdMetRS: 9.756%; Mtb heat-shock: 2.142%
* CCC(CC)C(=O)NC1CCCc2nc(N3CCOCC3)ncc21 (configuration not stated) : LdMetRS: 13.54%; Mtb heat-shock: -2.672%

Data taken from ChEMBL document CHEMBL3988442, “University of Dundee, Small-Polar-MMV Screening Library” (2021).